# Assay results as given in EPA's ToxRefDB 2.
# Columns and labels:
# rat = conditions: Carcinogenicity; fischer; Oral; Feed; dose end: 105 week; group: systemic; systemic / in life observation / body weight / body weight + systemic / pathology microscopic / kidney / hyperplasia + systemic / pathology …
# mouse [1] = conditions: Subchronic oral toxicity in rodents, b6c3f1, Feed, dose end: 14 week, group: systemic, systemic / clinical chemistry / bile acids / bile acids + systemic / clinical chemistry / sorbitol dehydrogenase / sorbitol dehydrogenase + …
# mouse [2] = conditions: Carcinogenicity; b6c3f1; Oral; Feed; dose end: 105 week; group: systemic; systemic / in life observation / body weight / body weight + systemic / pathology microscopic / kidney / mineralization + systemic / …
structure (smiles),measurement,setting,value
O=C(c1ccccc1)c1ccccc1 [Benzophenone],NOAEL,rat,15 mg/kg/day
same,NOAEL,mouse [1],200 mg/kg/day
same,NOAEL,mouse [2],35 mg/kg/day
